According to patent publication US20220259298A1 (KYOTO UNIVERSITY, published 2022):
No constants are given. Whether binding was seen depends on the method and setting. In cells and extracts the contact can be indirect. Some binding calls cover weakened binding; strength is not graded here.

By UniProt entry, the sequences of proteins in these tests, tags left out. Residues count along the entry.
UniProt Q6X4U4, residues 24-206: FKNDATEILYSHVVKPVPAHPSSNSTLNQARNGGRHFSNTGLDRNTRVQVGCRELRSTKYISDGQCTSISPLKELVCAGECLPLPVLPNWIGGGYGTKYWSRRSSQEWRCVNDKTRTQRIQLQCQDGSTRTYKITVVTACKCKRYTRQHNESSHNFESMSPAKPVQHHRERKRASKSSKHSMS

Assays:
[1] = target: N-terminal PA-tagged human USAG-1 (WISE) recombinant protein (human) (UniProt Q6X4U4); experiment: pull-down: antibody on Protein A sepharose, Expi293F supernatant with PA-tagged USAG-1, SDS-PAGE and CBB staining
[2] = target: N-terminal PA-tagged human USAG-1 (WISE) recombinant protein (human) (UniProt Q6X4U4); experiment: pull-down: antibody on Protein A sepharose, Expi293F supernatant with PA-tagged USAG-1, SDS-PAGE

B1: mouse anti-USAG-1 neutralizing antibody E (B103) (antibody, mouse IgG1, kappa, V domains shown)
VH: DVQLQESGPGLVKPSQSLSLTCSVTGYSITSGYYWNWIRQFPGNKLEWMGCISYDGSNNYNPSLKNRISITRDTSKNQFFLKLNSVTTEDTATYYCARGGLLWGQGTTLTVSS
VL: DIQMTQSPSSLSASLGERVSLTCRASQEISGYLSWLQQKPDGNIKRLIYAASTLDSGVPKRFSGSRSGSDYSLTISRLESEDFADYYCLQYASYPWTFGGGTKLEIKR
notes: Raised against baculovirus-derived rat USAG-1
[1]
  binding: binds

B2: mouse anti-USAG-1 neutralizing antibody B (E57) (antibody, mouse IgG1, kappa, V domains shown)
VH: EVQLQQSGPELVKPGASVKISCKTSGYSFTGYYMSWVKQSPEKSLEWIGEINPTTGGSTYNQKFKAKATLTVDKSSSTAYMQLKSLTSEDSAVYYCAREGYYSGISYDAMDYWGQGTSVTVSS
VL: DIQMTQTTSSLSASLGDRVTISCRASQDISNYLSWYQQKPDGTVKLLIYYTSRLHSGVPSRFSGSGSGTDYSLTISNLEQEDIATYFCQQGNTLPRTFGGGTKLEIKR
[2]
  binding: binds

B3: mouse anti-USAG-1 neutralizing antibody C (B14) (antibody, V domains shown)
VH: EVQLQQSGPELVKPGASVKISCKASGYSFTGYYMNWVKQSPEKSLEWIGEINPTTGGTTYNQKFKAKATLTVDKSSSTAYMQLKSLTSEDSAVYYCARLHYDYDGVGYAMDYWGQGTSVTVSS
VL: DIVMTQSHKFMSTSVGDRVSITCKASQDVSTAVAWYQQKPGQSPKLLIYSASYRYTGVPARFTGSGSGTDFTFTISSVQAEDLAVYYCQQHYSTPPTFGGGTKLEIKR
notes: as for B1
[1]
  binding: binds

B4: mouse anti-USAG-1 neutralizing antibody A (E37) (antibody, mouse IgG1, kappa, V domains shown)
VH: QVQLQQSDAELVNPGASVKISCKVSGYTFTDHTIHWMKQRPEQGLEWIGYIYPGDGSTKYNEKFKGKATLTADKSSSTAYMQLNSLTSEDSAVYFCARTETYYGRIYYYAMDYWGQGTSVTVSS
VL: QIVLSQSPAILSASPGEKVTMTCRASSSVSYMYWYQQKPGSSPKPWIYATSNLASGVPIRFSGSGSGTSYSLTISRVEAEDAATYYCQQWSSNLTFGAGTKLELKR
[2]
  binding: binds
